Laboratory results: patent US20200040348A1, “CONTROL OF VIRAL AND BACTERIAL INFECTION BY ANTIMICROBIAL PEPTIDES RETROCYCLIN AND/OR PROTEGRIN EXPRESSED IN CHLOROPLASTS” (THE TRUSTEES OF THE UNIVERSITY OF PENNSYLVANIA, priority 2010, published 2020)
Some entries share one result that the patent states for a list of compounds.

System: Erwinia carotovora
Experiment: Erwinia carotovora inoculation and bacterial count in tobacco leaves
Format: in vivo
Details: 1.0×10^5 cfu/ml by syringe, transplastomic leaves
Experimental: The leaves of untransformed and transplastomic tobacco plants were inoculated with 20 μl of bacterial suspension (1.0×10^5 cfu/ml) through a syringe. Each leaf disc (0.8 cm diameter) was punched off from the inoculated area of an individual plant after 0, 1 or 3 days of incubation. The bacterial population inside the leaf was calculated as follows. Leaf tissue was ground in 100 μl sterilized water in a microcentrifuge tube. The suspension was serially diluted with sterilized water and was then plated on nutrient broth agar plates (Difco). Colonies were counted after one day of incubation at 25° C.

[1] = three days after inoculation, untransformed 2.0×10^8

Row | Substance | density of E. carotovora in leaves (0 day post-inoculation) | density of E. carotovora in leaves [1]
1 | Protegrin-1 (RGGRLCYCRRRFCVCVGR; two disulfide bonds) [PG1] | less than 1×10^5 cfu/cm^2 | less than 1×10^4 cfu/cm^2
2 | Retrocyclin-101 [RC101] | less than 1×10^5 cfu/cm^2 | less than 1×10^4 cfu/cm^2
